Results on 1 substance are retold here after article PMC11489326, “Characterization of lignin-degrading enzyme PmdC, which catalyzes a key step in the synthesis of polymer precursor 2-pyrone-4,6-dicarboxylic acid” (The Journal of Biological Chemistry, 2024).

Amino acid sequences for entries named in this document (tags omitted).
UniProt Q8RNX9: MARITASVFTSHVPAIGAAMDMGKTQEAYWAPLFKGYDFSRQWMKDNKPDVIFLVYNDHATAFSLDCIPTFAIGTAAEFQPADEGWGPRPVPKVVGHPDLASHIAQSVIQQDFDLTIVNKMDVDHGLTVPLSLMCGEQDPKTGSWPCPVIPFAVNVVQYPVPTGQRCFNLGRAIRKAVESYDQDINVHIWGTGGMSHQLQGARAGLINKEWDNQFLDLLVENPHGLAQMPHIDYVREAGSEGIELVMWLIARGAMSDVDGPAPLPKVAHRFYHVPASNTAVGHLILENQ

These are yes or no findings as the source states them, for the method shown. Some entries that bind do so weakly or less than the wild type.

The test has as its target T1, PmdA, subunit of protocatechuate 4,5-dioxygenase PmdAB from Comamonas testosteroni (Comamonas testosteroni) (UniProt Q8RNY0).
T1 sequence: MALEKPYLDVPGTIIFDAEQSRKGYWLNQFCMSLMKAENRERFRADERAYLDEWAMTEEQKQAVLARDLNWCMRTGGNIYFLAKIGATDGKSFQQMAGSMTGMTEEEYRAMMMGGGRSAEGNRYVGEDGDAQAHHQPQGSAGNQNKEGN
Description: co-purification on Ni-NTA; His6-PmdA and PmdB co-expressed in E. coli; lysate loaded on Ni-NTA agarose in an anaerobic chamber, washed with 20, 50 and 75 mM imidazole, eluted with 500 mM imidazole; 25 mM Hepes pH 7.5, 250 mM NaCl, 1 mM DTT; SDS-PAGE.

For “PmdB, subunit of protocatechuate 4,5-dioxygenase PmdAB from Comamonas testosteroni (from UniProt Q8RNX9 1-289) (enzyme)”, the binding result is “binds”.
